Laboratory results: PubChem BioAssay AID686943 (Drosophila RNAi Screening Center, 2013)

Assay: 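Knockdowns that increase or decrease active ERK after insulin receptor stimulation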 (primary screen)
System: Drosophila S2R+ haemocyte-like cells expressing YFP-tagged ERK (Rolled)
Reagent: long dsRNA against Drosophila genes
Challenge: insulin stimulation versus unstimulated cells; dose and duration not given
Measurement: 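Antibody staining for doubly phosphorylated ERK divided by ERK-YFP signal, as plate z-scores, in insulin-treated and untreated cells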
Scale: replicate 1, z-score of dpERK with insulin and replicate 2, z-score of dpERK with insulin: higher = more active ERK per ERK-YFP after insulin; replicate 1, z-score of dpERK under basal conditions: higher = more basal active ERK per ERK-YFP; replicate 1, z-score of ERK-YFP with insulin: higher = more YFP-tagged ERK signal
In all, the deposit lists about 23,000 reagents; this is an unselected part of those that have a named target and a result. 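Extra replicates exist only for a retested subset of genes; insulin dose and duration not given; both raised and lowered dpERK matter.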 The record does not give: the amount of reagent, the time to read-out.

| predicted target | amplicon | replicate 1, z-score of dpERK with insulin | replicate 2, z-score of dpERK with insulin | replicate 1, z-score of dpERK under basal conditions | replicate 1, z-score of ERK-YFP with insulin |
| --- | --- | --- | --- | --- | --- |
| ATPsynD | DRSC14093 | -2.91 | 0.19 | -0.57 | 0.38 |
| Gbeta13F | DRSC20247 | -0.15 | 1.39 | 1.95 | 0.48 |
| CG7512 | DRSC10863 | -1.57 | -0.57 | -0.95 | 1.07 |
| jing | DRSC04923 | 0.31 | 0.61 | 1.25 | -0.13 |
| jing | DRSC04927 | -0.9 | -1.08 | -0.22 | 0.15 |
| jing | DRSC05000 | 0.33 | 0.51 | -0.16 | -0.14 |
| CG31036 | DRSC15055 | 0.81 | -0.05 | -0.73 | 0.68 |
| CG31036 | DRSC15057 | -0.2 | -0.97 | -0.45 | -0.61 |
| CG17784 | DRSC15268 | -0.1 | 2.52 | 2.73 | -0.28 |
| CG2519 | DRSC12312 | -0.72 | 0.1 | 2.05 | -1.64 |
| CG34398 | DRSC01052 | 0.6 | 1.43 | 0.95 | -1.04 |
| CG34398 | DRSC02510 | -5.23 | -3.51 | -2.44 | -1.45 |
| CG34398 | DRSC02511 | -2.6 | -1.95 | -0.49 | -1.27 |
| CG34398 | DRSC03228 | 0.82 | 0.04 | -0.81 | 0.21 |
| CG5504 | DRSC04701 | 0.22 | 0.58 | -0.59 | 0 |
| Pldn | DRSC10137 | -0.05 | 0.05 | 1.29 | 0.64 |
| yrt | DRSC16559 | -0.83 | -0.07 | -0.58 | -0.9 |
| Gr59f | DRSC04499 | -0.21 | 0.02 | -0.03 | 0.13 |
| Ugt35D1 | DRSC15107 | -0.38 | -0.65 | -1.02 | 0.07 |
| CG43146 (retired record) | DRSC09254 | 1.61 | 0.29 | 0.32 | -0.74 |
| CG15764 | DRSC18070 | 1.11 | 0.65 | 0.85 | 0.29 |
| CG32591 | DRSC19063 | -0.27 | 0.66 | 0.16 | 1.55 |
| Diedel2 | DRSC13952 | -0.36 | -0.57 | -0.55 | 0.47 |
| tbc | DRSC20540 | -2.87 | -0.03 | -0.71 | 3.11 |
| Fatp (retired record) | DRSC03054 | -0.06 | -1.02 | 0.72 | 0 |
| CG32687 | DRSC18210 | 0.63 | 0.73 | 0.05 | -0.19 |
| CG32687 | DRSC18237 | 0.59 | 1.14 | -0.44 | -0.86 |
| beat-Ic | DRSC01524 | -0.6 | -0.33 | 0 | 0.58 |
| beat-Ic | DRSC03491 | -1.68 | -1.86 | -0.23 | 0.94 |
| RIOK1 | DRSC09853 | 0.08 | 0 | -0.31 | 0.42 |
| CG32181 | DRSC22635 | 0.63 | 1.08 | -0.4 | 0.16 |
| CG9636 | DRSC16529 | -0.13 | -0.17 | -1.04 | -0.03 |
| CG15657 | DRSC04248 | 0.21 | 0.03 | -0.06 | -0.5 |
| Acp1 | DRSC01854 | -0.22 | 0.34 | -1.02 | -0.65 |
| D19A | DRSC11133 | -2.96 | -2.74 | -1.54 | 1.04 |
| Ugt37D1 | DRSC02645 | 0.25 | -0.02 | 0.52 | -0.16 |
| Tmlh | DRSC15563 | 0.97 | -0.14 | 0.07 | -0.29 |
| CG34181 | DRSC01071 | -0.26 | 0.72 | 0.11 | -1.71 |
| Nadk1a | DRSC05431 | -0.16 | 0.28 | 1.63 | 0.21 |
| Nadk1a | DRSC06963 | -0.08 | -0.38 | 0.84 | 0.3 |
| lncRNA:CR43434 | DRSC13766 | 0.88 | 0.77 | -0.23 | -0.61 |
| RapGAP1 | DRSC02293 | -1.3 | -0.67 | -0.29 | 2.45 |
| RapGAP1 | DRSC02294 | -0.91 | 0.1 | -0.61 | 2.33 |
| RapGAP1 | DRSC02295 | -0.55 | -0.14 | -1.78 | 0.83 |
| RapGAP1 | DRSC03406 | 0.67 | 0.15 | 0.21 | -0.17 |
| CG13898 | DRSC08368 | 0.24 | 0.57 | -0.13 | 0.17 |
| CG13917 | DRSC08386 | 0.99 | 1.58 | 0.02 | -0.15 |
| CG43393 | DRSC03917 | -0.91 | -0.53 | -1.77 | 0.33 |
| CG32365 | DRSC10040 | 0.49 | 1.12 | -0.13 | 1.08 |
| CG32365 | DRSC10041 | -6.13 | -2.99 | -2.08 | -7.22 |
| CG32365 | DRSC10977 | -7.21 | -4.14 | -0.71 | -5.34 |
| CG30094 | DRSC22268 | -2.9 | 1.11 | 0.96 | -0.25 |
| mthl10 | DRSC08504 | -0.83 | -0.74 | -1.19 | 0.39 |
| mthl10 | DRSC08505 | 1.2 | -0.05 | 1.09 | 0.5 |
| Hph | DRSC12164 | -0.57 | -0.02 | -0.35 | -0.42 |
| Hph | DRSC12251 | -0.85 | 0.99 | -0.38 | 1.03 |
| Hph | DRSC21876 | 0.24 | 2.06 | 0.71 | -0.08 |

A few values from above.
Result for yrt [DRSC16559] in “replicate 1, z-score of dpERK under basal conditions”: -0.58
Result of CG34398 [DRSC02511] under “replicate 2, z-score of dpERK with insulin”: -1.95
For “replicate 1, z-score of dpERK under basal conditions”, Ugt37D1 [DRSC02645] reads 0.52
Result of jing [DRSC05000] under “replicate 2, z-score of dpERK with insulin”: 0.51
Entry of lncRNA:CR43434 [DRSC13766] in “replicate 2, z-score of dpERK with insulin”: 0.77
Gr59f [DRSC04499], replicate 2, z-score of dpERK with insulin = 0.02
